{
  "source": "PubChem BioAssay AID662",
  "about": "(National Center for Advancing Translational Sciences (NCATS), 2007)",
  "note": "This is one part of the list. The main result of the screen is listed elsewhere. These columns were measured beside it and carry no call. Most of these compounds were active or inconclusive in the main read-out, so they are no random draw. The note in brackets gives the kind of curve behind each potency; many fits are weak.",
  "data": [
    {"assay": "Cell signaling CRE-BLA (Fsk stim)", "settings": "CHO CRE-bla reporter (cAMP response element driving beta-lactamase), forskolin EC10, beta-lactamase ratio; measured here: 460 nm blue channel", "method_in_brief": "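The 460nm/530nm emission ratio after CCF4 loading defined %Activity, from which AC50 values were obtained. CRE-bla CHO cells received compound dilution series together with an EC10 level of NKH 477 for 3 hours at 37 degrees Celsius.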", "values": [
      {"smiles": "CCCCS(=O)CC(COc1ccc(Cl)cc1)OC(=O)c1ccccc1", "note": "(stereo not drawn)", "AC50": "0.501 µM [rising, partial curve, poor fit]"},
      {"smiles": "Cc1noc(/C=C/N(C)C)c1S(=O)(=O)N1CCc2ccccc21", "AC50": "25.1 µM [falling, single point]"},
      {"smiles": "COC(=O)c1sc(=S)sc1C(=O)OC", "AC50": "12.6 µM [falling, single point]"},
      {"smiles": "CCC(=O)Nc1nn(C)c2nc3c(C)cccc3cc12", "AC50": "12.6 µM [rising, partial curve]"},
      {"smiles": "C[C@@](Cc1ccccc1)(NC(=O)CN)c1ccccc1", "AC50": "10 µM [falling, partial curve, poor fit]"},
      {"smiles": "CC(=O)N1CCc2cc(S(=O)(=O)NC(CC(C)C)C(=O)N3CCn4c3nc3ccccc34)ccc21", "note": "(stereo not drawn)", "AC50": "2 µM [rising, full curve, poor fit]"},
      {"smiles": "CC1=C(C(=O)OC2CCCCC2)C(c2ccco2)C2=C(CC(C)(C)CC2=O)N1", "note": "(stereo not drawn)", "AC50": "12.6 µM [rising, single point]"},
      {"smiles": "COc1ccccc1-n1c(SCC(=O)N(C)C2CCS(=O)(=O)C2)nc2ccccc2c1=O", "note": "(stereo not drawn)", "AC50": "0.0398 µM [falling, full curve]"},
      {"smiles": "O=C(CSc1ncn(-c2ccccc2)n1)Nc1nc2ccccc2s1", "AC50": "25.1 µM [falling, single point]"},
      {"smiles": "O=C(Nc1cc(N2CCOCC2)ncn1)NC1(C(F)(F)F)Oc2ccc(Cl)cc2O1", "note": "(stereo not drawn)", "AC50": "12.6 µM [falling, partial curve]"},
      {"smiles": "CCOC(=O)c1c(C)n(C)c2ccc(OC(=O)c3ccoc3)cc12", "AC50": "2.51 µM [rising, single point]"},
      {"smiles": "COc1ccc2[nH]cc(CCNc3ncnc4ccc(-c5cccnc5)cc34)c2c1", "AC50": "2.51 µM [rising, partial curve]"},
      {"smiles": "CC1CCCCC1NS(=O)(=O)c1ccc(S(=O)(=O)NCc2ccncc2)cc1", "note": "(stereo not drawn)", "AC50": "0.00316 µM [falling, full curve, poor fit]"},
      {"smiles": "Cc1cc(N2CCOCC2)nc2ccc(NC(=O)CCC(=O)N3CCCC(C)C3)cc12", "note": "(stereo not drawn)", "AC50": "25.1 µM [rising, single point]"},
      {"smiles": "Cc1cc(C)cc(N(CC(=O)N2CCC(C)CC2)S(C)(=O)=O)c1", "AC50": "0.501 µM [falling, single point]"},
      {"smiles": "O=C(Cc1ccc2cccnc2c1)c1ccc(O)cc1O", "AC50": "3.98 µM [falling, partial curve]"},
      {"smiles": "CN1CCN(c2ncnc3ccc(-c4ccccc4C#N)cc23)CC1", "AC50": "6.31 µM [rising, partial curve]"},
      {"smiles": "Cc1nc2c3cnn(-c4ccccc4)c3ncn2n1", "AC50": "12.6 µM [rising, single point]"},
      {"smiles": "CCN(C(=O)CSc1nc2nc(C)cc(C)n2n1)c1cccc(C)c1", "AC50": "10 µM [rising, partial curve]"},
      {"smiles": "O=C(c1ccccc1)C(Sc1ncn[nH]1)c1ccccc1", "note": "(stereo not drawn)", "AC50": "2.51 µM [falling, partial curve]"},
      {"smiles": "COCCn1c(SCC(=O)Nc2sc(C)c(C)c2C#N)nnc1-c1ccc(OC)cc1", "AC50": "12.6 µM [rising, single point]"},
      {"smiles": "Cc1ccc(C(=O)Nc2ccccc2C(=O)NCc2ccco2)cc1S(=O)(=O)N1CCCCC1", "AC50": "12.6 µM [rising, partial curve]"},
      {"smiles": "CCOC(=O)c1ccc(NC(=O)CNC(=O)C2CCCCC2)cc1", "AC50": "0.501 µM [falling, partial curve]"},
      {"smiles": "OCCNc1nc2ccc(Cl)cc2[nH]1", "AC50": "25.1 µM [rising, single point]"},
      {"smiles": "COc1ccc(-c2nc3cnc(N4CCNCC4)nc3n(Cc3cccs3)c2=O)cc1", "AC50": "1.26 µM [rising, full curve]"},
      {"smiles": "O=C(Cc1cccs1)N(c1ccccc1)C1C=CS(=O)(=O)C1", "note": "(stereo not drawn)", "AC50": "3.16 µM [falling, partial curve]"},
      {"smiles": "COC(=O)C(C)N(C#N)c1nc(C)nc(C)n1", "note": "(stereo not drawn)", "AC50": "5.01 µM [rising, partial curve]"},
      {"smiles": "c1ccc(-c2nn3c(-c4ccco4)nnc3s2)nc1", "AC50": "20 µM [rising, single point]"},
      {"smiles": "CC1(C)CC(=O)C2=C(C1)NC(SCC(=O)Nc1ccccc1)=C(C#N)C2c1ccco1", "note": "(stereo not drawn)", "AC50": "10 µM [rising, partial curve]"},
      {"smiles": "O=C(c1cc2nc(-c3ccco3)cc(C(F)(F)F)n2n1)N1CCN(c2ccc(F)cc2)CC1", "AC50": "10 µM [rising, partial curve]"},
      {"smiles": "CCOC(=O)C1CCCN(C(=O)c2ccco2)C1", "note": "(stereo not drawn)", "AC50": "0.398 µM [rising, partial curve]"},
      {"smiles": "COc1ccc(-c2nc3cnc(OC)nc3n(-c3ccc(OC)cc3)c2=O)cc1", "AC50": "25.1 µM [rising, partial curve]"},
      {"smiles": "COc1cc(C(c2sc3nc(C)nn3c2O)N2CCN(c3ccccc3)CC2)cc(OC)c1OC", "note": "(stereo not drawn)", "AC50": "1.58 µM [rising, full curve]"},
      {"smiles": "CCOC(=O)c1cnn(-c2ncnc3sc(CC)cc23)c1N", "AC50": "2.51 µM [rising, full curve, poor fit]"},
      {"smiles": "Cc1cc(NC(=O)NC2(C(F)(F)F)Oc3ccc(Cl)cc3O2)no1", "note": "(stereo not drawn)", "AC50": "12.6 µM [falling, single point]"},
      {"smiles": "COC(=O)c1c(NC(=O)CC2SCC(C(=O)OC)NC2=O)sc2c1CCCC2", "note": "(stereo not drawn)", "AC50": "15.8 µM [rising, single point]"},
      {"smiles": "CCOC(=O)Cn1c(C)c(C#N)c2ccccc21", "AC50": "0.501 µM [falling, partial curve, poor fit]"},
      {"smiles": "COC(=O)c1ccc(CSc2ccc3nnc(-c4ccc(OC)c(OC)c4)n3n2)o1", "AC50": "2 µM [rising, full curve]"},
      {"smiles": "Cc1csc(=O)n1CC(=O)OCc1cccc2ccccc12", "AC50": "3.98 µM [rising, partial curve]"},
      {"smiles": "CCCC(=O)Nc1cccc(NC(=O)c2ccc3c(c2)OCCO3)c1", "AC50": "3.16 µM [falling, partial curve, poor fit]"},
      {"smiles": "Nc1nc2ccc([N+](=O)[O-])cc2s1", "AC50": "3.16 µM [falling, full curve, poor fit]"},
      {"smiles": "Cc1cc(C(=O)N[C@@H](c2ccccc2)[C@]2(C)C[C@H]2[C@@H](C)C(=O)Nc2ccc3ccccc3c2)no1", "AC50": "3.16 µM [falling, full curve, poor fit]"},
      {"smiles": "C#CCNc1nc(C(C)C)nc2c1nnn2Cc1ccccc1F", "AC50": "12.6 µM [rising, partial curve]"},
      {"smiles": "Cc1cc(C(=O)OCC(=O)N(C)C2CCS(=O)(=O)C2)c(C)n1-c1ccccc1", "note": "(stereo not drawn)", "AC50": "15.8 µM [rising, partial curve]"},
      {"smiles": "CCCCCOc1ccc(NS(C)(=O)=O)cc1", "AC50": "31.6 µM [falling, single point]"},
      {"smiles": "COCCn1c(=O)c(-c2ccccc2)nc2cnc(Oc3ccc(OC)cc3)nc21", "AC50": "25.1 µM [rising, single point]"},
      {"smiles": "c1csc(CNc2ncncc2-c2ccc3c(c2)OCO3)c1", "AC50": "3.16 µM [rising, single point]"},
      {"smiles": "Cc1noc2nc(-c3cccs3)cc(-c3nnc4n3CCCCC4)c12", "AC50": "0.00316 µM [falling, full curve, poor fit]"},
      {"smiles": "CCCCC(=O)NCCNc1nc2c(c(=O)n(C)c(=O)n2C)n1Cc1ccccc1", "AC50": "5.01 µM [rising, partial curve]"},
      {"smiles": "COc1ccc(-c2nnc3ccc(SCC(=O)N4CCCCC4)nn23)cc1OC", "AC50": "5.01 µM [rising, partial curve]"},
      {"smiles": "O=C(O)C1C2CCC(O2)C1C(=O)NCCC1=CCCCC1", "note": "(stereo not drawn)", "AC50": "1 µM [rising, full curve, poor fit]"},
      {"smiles": "Cc1noc(C)c1CSCC(=O)OCC(=O)Nc1sccc1C#N", "AC50": "0.501 µM [falling, full curve]"},
      {"smiles": "Cn1c(=O)c2c(nc(Sc3nc4ccccc4n3CC(=O)N3CCCCC3)n2C)n(C)c1=O", "AC50": "10 µM [rising, partial curve]"},
      {"smiles": "CCNc1ncc2nc(-c3ccc(OC)cc3)c(=O)n(Cc3cccc(OC)c3)c2n1", "AC50": "2.51 µM [rising, partial curve]"},
      {"smiles": "O=c1c(-c2ccccc2)nc2cnc(N3CCOCC3)nc2n1Cc1ccc(F)cc1", "AC50": "0.794 µM [rising, full curve]"},
      {"smiles": "Cc1onc(-c2c(F)cccc2Cl)c1C(=O)OCn1nnc2ccccc2c1=O", "AC50": "1.26 µM [rising, partial curve]"},
      {"smiles": "CC(=O)Nc1cc2c(cc1C(C)=O)OCCO2", "AC50": "5.01 µM [falling, single point]"},
      {"smiles": "CCn1ncc(Br)c1C(=O)Nc1sc2c(c1C(=O)OC)CCC2", "AC50": "10 µM [rising, single point]"},
      {"smiles": "N#Cc1cccc(-c2nc(NCc3cccnc3)c3ccccc3n2)c1", "AC50": "10 µM [rising, partial curve]"},
      {"smiles": "COc1ccc(-n2c(=O)c(C)nc3cnc(Oc4cccc(Cl)c4)nc32)cc1", "AC50": "10 µM [rising, partial curve]"},
      {"smiles": "c1ccc(-c2ccc(-c3ccc(C4=NCCN4)cc3)o2)cc1", "AC50": "0.794 µM [rising, partial curve]"},
      {"smiles": "C=CCn1c(SCC(=O)Nc2ccc3c(c2)OCO3)nnc1-c1cc(Br)ccc1O", "AC50": "25.1 µM [falling, single point]"},
      {"smiles": "Cc1ccc(Nc2nnc(SCc3cc(=O)n4ccsc4n3)s2)c(C)c1", "AC50": "10 µM [rising, single point]"},
      {"smiles": "Cc1cc(C)n2cc(CSc3nnnn3-c3ccccc3C)nc2n1", "AC50": "6.31 µM [rising, partial curve]"},
      {"smiles": "COC(=O)c1ccccc1NC(=O)c1cccs1", "AC50": "12.6 µM [rising, single point]"},
      {"smiles": "COC(=O)Nc1c(C)n(C)n(-c2ccccc2)c1=O", "AC50": "0.0501 µM [rising, full curve]"},
      {"smiles": "c1nc2sc3c(c2c2nnnn12)CCCC3", "AC50": "0.2 µM [falling, full curve]"},
      {"smiles": "CCCCCC(=O)N(O)C1CC(=O)N(c2ccccc2)C1=O", "note": "(stereo not drawn)", "AC50": "10 µM [falling, partial curve]"}
    ]}
  ]
}
